Laboratory results: doi:10.1101/2025.02.17.638697

Molecular target: Cna1-GFP fusion protein (calcineurin catalytic subunit A) (C. deneoformans) (UniProt Q9Y879)
Test: affinity purification with mass spectrometry

B1: Cnb1 (calcineurin regulatory subunit B) (protein, UniProt P0CM54 1-175)
chain: MGAAESSMFNSLEKNSNFSGPELMRLKKRFMKLDKDGSGSIDKDEFLQIPQIANNPLAHRMIAIFDEDGSGTVDFQEFVGGLSAFSSKGGRDEKLRFAFKVYDMDRDGYISNGELYLVLKQMVGNNLKDQQLQQIVDKTIMEADKDGDGKLSFEEFTQMVASTDIVKQMTLEDLF
binding: binds

No constants are given. Whether binding was seen depends on the method and setting. Binding seen in cells or lysates may run through a third protein. Here binding means that the protein was enriched with, or labelled near, the bait; the list need not be complete.
